In the supplement of paper PMC3334620:
Over roughly 33,000 sequences, “E-score (-0.5 to 0.5)” has its median near -8e-05; the highest 2% begin near 0.23. The list shows a part of the results.

biological target: T1, Nrg2 (UniProt P38082); test: PBM E-score (8-mer binding enrichment) (E-score (-0.5 to 0.5)); higher = stronger / more preferred TF binding; details: protein concentration: 100 nM; construct: GST-full length
T1 sequence: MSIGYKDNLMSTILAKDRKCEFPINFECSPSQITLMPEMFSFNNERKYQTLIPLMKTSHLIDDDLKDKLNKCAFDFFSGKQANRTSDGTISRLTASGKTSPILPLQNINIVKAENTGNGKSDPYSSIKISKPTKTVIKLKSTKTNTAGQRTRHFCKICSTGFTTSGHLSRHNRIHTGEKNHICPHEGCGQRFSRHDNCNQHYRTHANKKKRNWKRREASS
How it was run: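 Using PURExpress in vitro transcription/translation, GST-tagged yeast transcription factors were made in full-length or DNA-binding-domain form. These were applied at about 100-200 nM to double-stranded universal all-10-mer Agilent arrays, and bound protein was detected with fluorescent anti-GST. Scans were normalised with masliner before the Universal PBM Analysis Suite assigned E-scores to ungapped eight-base words pooled with their reverse complements.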

Sequence | PBM E-score
AAAATATG | 0.164
GAAACGAA | 0.166
CGGGACTA | -0.0447
GAAGTGAC | -0.156
CCACATGA | -0.00123
CCCAATTA | 0.0564
CGAAGGGC | 0.0773
CGACCTCG | 0.134
ACAATAAT | 0.161
CACTCCTG | -0.0552
ACTGAAGC | -0.00321
TCACGAGA | -0.186
GCACCAGA | -0.0883
CCGCTTTC | -0.169
AGCCGCAA | -0.0078
GGGCTTCA | -0.103
CAAACGCG | 0.0917
ATAGTCAG | 0.0324
AACGCGAC | 0.0416
ATTACCTC | 0.0644
AATTAACG | 0.0221
GCGTTAGA | 0.0176

Sequence | PBM E-score
ATGCAAAG | 0.0187
AATGCACT | 0.121
CCATTGTA | 0.0274
TACAAGCA | 0.121
TGCCGACA | 0.165
CCCGAAAC | 0.0403
ACGTATAT | 0.0241
ATCTGGTC | 0.0416
GACAAACA | 0.089
TGATGCAA | 0.0294
ACCCGGAA | 0.0171
CAAAATTC | 0.131
GTCTAGAA | 0.0141
TATTTAGA | 0.0683
CTGAAGGC | -0.175
CATCCCCG | 0.167
ATGATAGC | 0.141
AAGAATTA | -0.0237
AAAGCCCA | -0.0731
GAAAGTCA | 0.0315
CCTTAGCC | -0.00443
TCTAAAGA | 0.00161

Sequence | PBM E-score
ACGGGCAC | -0.0313
CCAGTCAA | -0.0327
AACGGATA | 0.258
ACTCCGGA | 0.214
AACCTTAT | -0.166
AATAGATC | 0.208
CGCGAGGC | 0.121
GAAAATGA | -0.0055
AATAATGA | 0.0641
ATGCGAAT | 0.132
AGACCAAG | 0.0702
ACCGGTAC | -0.298
GAATGCAA | 0.0701
TGGAGGAA | -0.0748
CGATAAGC | -0.0581
AGATAGGG | 0.0478
CGATTCTA | -0.148
CTGCCAAA | 0.0246
CTACCGCC | -0.0974
AGTCCACT | -0.182
AAGAAGGT | 0.0446
AAAAGTCC | 0.006

Sequence | PBM E-score
AAGAACGG | 0.0233
AGAAGGCC | -0.134
AAGTCATC | -0.059
ATTGCAAG | 0.137
CATGTGGC | 0.0563
CCCGAAAG | 0.118
AGGCAGAA | 0.0979
AAGGCTAT | -0.18
AGATCACA | -0.0181
CCACTTAC | 0.174
CTAGCCGC | 0.00502
AGAGATCC | 0.0789
ACTACAAT | 0.153
GGCGCGCC | 0.187
GGAAGTTA | 0.144
AGGCATCC | -0.161
ATTTCCCA | 0.153
ATAACACG | 0.0449
CCCCCCGG | -0.397
GGTTCATA | -0.016
AATCAAAC | 0.222
CCCTGTGA | 0.059

A portion of the results above, as a working copy:
Sequence | PBM E-score
CTGCCAAA | 0.0246
CTACCGCC | -0.0974
AGTCCACT | -0.182
AAGAAGGT | 0.0446
AAAAGTCC | 0.006
AAGAACGG | 0.0233
AGAAGGCC | -0.134
AAGTCATC | -0.059
ATTGCAAG | 0.137
CATGTGGC | 0.0563
CCCGAAAG | 0.118
AGGCAGAA | 0.0979
AAGGCTAT | -0.18
AGATCACA | -0.0181
CCACTTAC | 0.174
CTAGCCGC | 0.00502
AGAGATCC | 0.0789
ACTACAAT | 0.153
GGCGCGCC | 0.187
GGAAGTTA | 0.144
AGGCATCC | -0.161
ATTTCCCA | 0.153
ATAACACG | 0.0449
CCCCCCGG | -0.397
GGTTCATA | -0.016

Additional entries follow.

Sequence | PBM E-score
CCTGTTAC | 0.0314
CGAACAGC | -0.041
CTGTGAAG | 0.0207
GTTGCTAA | 0.196
CGATCTAC | -0.00988
CTATATAC | 0.238
CCAACAGG | -0.0342
CCCGTTCA | 0.096
ACCTGATA | 0.0459
TTGACAAA | 0.094
AAAGGGGG | -0.327
GTGGCTAA | 0.0968
ACAATCGT | -0.101
GGTACTAA | 0.115
CCAAGCGG | -0.234
ACGATCCC | -0.0731
AGAGCAAG | 0.176
ACACGAGT | 0.126
GGCCACCA | 0.0277
CGTCCATA | -0.00049
GCGGTATA | -0.00849
CGGAATTA | 0.105
